Results reported in the supplement of paper PMC10849652.
This is one part of the list.

What follows are targets tested with Cc1cc(Nc2cc(N3CCN(C)CC3)nc(Sc3ccc(NC(=O)C4CC4)cc3)n2)n[nH]1 [tozasertib] (assay: log2 fold change, soluble protein after heating vs DMSO (PISA); higher = thermal stabilisation; K562 lysate, 10 uM; active = over 0.2 and 3.5 SD of the protein, either way, in both replicates (recomputed)).
Outline: (§1)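 Values give the log-two fold change in thermal stability against solvent controls, from duplicates. Crude K562 extract at 1 mg/mL protein, made by dounce homogenisation in PBS pH 7.4 with 1 mM MgCl2, was treated with 10 μM compound for 30 min. After 3 min heating across 48°C-58°C, aliquots were pooled, adjusted to 0.5% NP-40 at 4°C and centrifuged at 21,000xg for 90 min. The supernatant was measured by TMTpro 16plex LC-MS/MS with channel sums equalised.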
In the case of PPP2R2A isoform 2 (UniProt P63151), the log2 fold change is reported as inactive: -0.009. With PPT1 (UniProt P50897) the log2 fold change was inactive: 0.094. PPP1CB (UniProt P62140) was tested, and the log2 fold change was inactive: 0.037. For PRPF6 (UniProt O94906), the log2 fold change was inactive: 0.023.

These targets were tested with Cc1ccc(-n2nc(C(C)(C)C)cc2NC(=O)Nc2ccc(OCCN3CCOCC3)c3ccccc23)cc1 [doramapimod] in the same assay as above.
Outline: as §1
With PPP4R4 (UniProt Q6NUP7) the log2 fold change was inactive: -0.165. PRKCQ (UniProt Q04759) was tested, and the log2 fold change was inactive: 0.037. For PPP1R3D (UniProt O95685), the log2 fold change was inactive: -0.043. In the case of PPP5C (UniProt P53041), the log2 fold change is reported as inactive: 0.017. With PRMT9 (UniProt Q6P2P2) the log2 fold change was inactive: -0.038. PRKAR1B (UniProt P31321) was tested, and the log2 fold change was inactive: 0.02. With PRORP (UniProt O15091) the log2 fold change was inactive: 0.036. PRNP (UniProt P04156) was tested, and the log2 fold change was inactive: 0.054. With PRPF19 (UniProt Q9UMS4) the log2 fold change was inactive: 0.013. With PPP2R5B (UniProt Q15173) the log2 fold change was inactive: 0.005. PRKD3 (UniProt O94806) was tested, and the log2 fold change was inactive: -0.075. With PPP6R1 (UniProt Q9UPN7) the log2 fold change was inactive: -0.016. PPP6C isoform 3 (UniProt O00743) was tested, and the log2 fold change was inactive: 0. PRKACA (UniProt P17612) was tested, and the log2 fold change was inactive: -0.113. For PRKD2 isoform 3 (UniProt Q9BZL6), the log2 fold change was inactive: -0.002. PPP2R3B (UniProt Q9Y5P8) was tested, and the log2 fold change was inactive: 0.038. PRKDC (UniProt P78527) was tested, and the log2 fold change was inactive: -0.038. In the case of PRG4 (UniProt Q92954), the log2 fold change is reported as inactive: 0.201. For PPP1R13L (UniProt Q8WUF5), the log2 fold change was inactive: 0.045. With PRMT1 (UniProt Q99873) the log2 fold change was inactive: 0.038. In the case of PROS1 (UniProt P07225), the log2 fold change is reported as inactive: 0.032. With PPP1R12B isoform 6 (UniProt O60237) the log2 fold change was inactive: 0.047. In the case of PRKCA (UniProt P17252), the log2 fold change is reported as inactive: -0.023. In the case of PPP2CB (UniProt E5RHC1), the log2 fold change is reported as inactive: 0.114. PPM1H (UniProt Q9ULR3) was tested, and the log2 fold change was inactive: 0.093. For PRADC1 (UniProt Q9BSG0), the log2 fold change was inactive: -0.041. PPP2R2D (UniProt Q66LE6) was tested, and the log2 fold change was inactive: -0.036. With PRMT7 (UniProt Q9NVM4) the log2 fold change was inactive: -0.025. PPP2R2A isoform 2 (UniProt P63151) was tested, and the log2 fold change was inactive: 0.004. For PPT1 (UniProt P50897), the log2 fold change was inactive: -0.014. For PPP1CB (UniProt P62140), the log2 fold change was inactive: -0.007. In the case of PRPF6 (UniProt O94906), the log2 fold change is reported as inactive: 0.064.

What follows are targets tested with Cc1ccc(NC(=O)c2ccc(CN3CC[C@H](N(C)C)C3)c(C(F)(F)F)c2)cc1Nc1nccc(-c2cncnc2)n1 [bafetinib] in the same assay as above.
Outline: as §1
PPP4R4 (UniProt Q6NUP7) was tested, and the log2 fold change was inactive: 0.012. For PRKCQ (UniProt Q04759), the log2 fold change was inactive: -0.037. In the case of PPP1R3D (UniProt O95685), the log2 fold change is reported as inactive: 0.031. For PPP5C (UniProt P53041), the log2 fold change was inactive: -0.012. With PRMT9 (UniProt Q6P2P2) the log2 fold change was inactive: -0.049. For PRKAR1B (UniProt P31321), the log2 fold change was inactive: 0.088. With PRKX (UniProt P51817) the log2 fold change was inactive: -0.038. With PRORP (UniProt O15091) the log2 fold change was inactive: 0.164. PRNP (UniProt P04156) was tested, and the log2 fold change was inactive: 0.108. With PRPF19 (UniProt Q9UMS4) the log2 fold change was inactive: 0.011. For PPP2R5B (UniProt Q15173), the log2 fold change was inactive: 0.054. PRKD3 (UniProt O94806) was tested, and the log2 fold change was inactive: -0.086. For PPP6R1 (UniProt Q9UPN7), the log2 fold change was inactive: -0.022. With PPP6C isoform 3 (UniProt O00743) the log2 fold change was inactive: 0.006. With PRKACA (UniProt P17612) the log2 fold change was inactive: -0.073. With PRKD2 isoform 3 (UniProt Q9BZL6) the log2 fold change was inactive: 0.02. For PPP2R3B (UniProt Q9Y5P8), the log2 fold change was inactive: -0.189. With PPP1R14C (UniProt Q8TAE6) the log2 fold change was inactive: 0.041. For PRKDC (UniProt P78527), the log2 fold change was inactive: -0.146. In the case of PRG4 (UniProt Q92954), the log2 fold change is reported as inactive: -0.238. In the case of PPP1R13L (UniProt Q8WUF5), the log2 fold change is reported as inactive: 0.089. In the case of PRMT1 (UniProt Q99873), the log2 fold change is reported as inactive: -0.005. PROS1 (UniProt P07225) was tested, and the log2 fold change was inactive: -0.022. With PPP1R12B isoform 6 (UniProt O60237) the log2 fold change was inactive: 0.05. For PRKCA (UniProt P17252), the log2 fold change was inactive: -0.069. In the case of PPP2CB (UniProt E5RHC1), the log2 fold change is reported as inactive: -0.151. With PPM1H (UniProt Q9ULR3) the log2 fold change was inactive: -0.079. PRADC1 (UniProt Q9BSG0) was tested, and the log2 fold change was inactive: -0.149. In the case of PPP2R2D (UniProt Q66LE6), the log2 fold change is reported as inactive: -0.032. For PRMT7 (UniProt Q9NVM4), the log2 fold change was inactive: -0.01. For PPP2R2A isoform 2 (UniProt P63151), the log2 fold change was inactive: -0.014. For PPT1 (UniProt P50897), the log2 fold change was inactive: -0.019. In the case of PPP1CB (UniProt P62140), the log2 fold change is reported as inactive: -0.043. PRPF6 (UniProt O94906) was tested, and the log2 fold change was inactive: -0.056.
